Data from article PMC8752127.
Results are given in words; binding and its absence hold for the method and conditions named. For some of these results: In cells and extracts the contact can be indirect. Some binding calls cover weakened binding; strength is not graded here.

By UniProt entry, the sequences of proteins in these tests, tags left out.
UniProt Q15691: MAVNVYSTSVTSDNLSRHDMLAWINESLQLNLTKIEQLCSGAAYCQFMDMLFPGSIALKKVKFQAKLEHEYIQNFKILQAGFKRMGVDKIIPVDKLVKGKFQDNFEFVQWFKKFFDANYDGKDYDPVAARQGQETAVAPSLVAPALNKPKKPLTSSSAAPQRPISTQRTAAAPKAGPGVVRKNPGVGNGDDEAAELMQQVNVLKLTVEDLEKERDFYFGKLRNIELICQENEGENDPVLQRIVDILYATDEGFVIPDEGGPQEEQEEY

What was measured:
[1] = molecular target: 3xFLAG tagged human EB1 (human) (UniProt Q15691); assay: pull-down; 3xFLAG-EB1 from 293 lysate on anti-FLAG M2 affinity gel; cleared lysates with 3xHA-TTBK2 constructs mixed with ~0.4 mg/ml recombinant GST-CEP164 1-109 (WT or Y73A); PBS, 0.1% IGEPAL CA-630, 0.1 mM DTT; 1 h, 4°C; Western blot
[2] = molecular target: MBP-TTBK2^1033−1087 WT (human) (UniProt Q6IQ55); assay: pull-down; 30 μg purified MBP-TTBK2 1033-1087 constructs on amylose resin; 100 μg purified EB1 or CEP164-NTD-GFP added, optionally with a 10X molar excess of CEP164-NTD or EB1-GFP; PBS, 0.1% IGEPAL CA-630, 2 mM DTT; 1 h, 4°C; Coomassie-stained gel; both purified
[3] = molecular target: MBP-TTBK2^1033−1087, TTBK2^(1076−1078 RPP to AAA) (human) (UniProt Q6IQ55); assay: as above

| Substance | binding [1] | binding [2] | binding [3] |
| --- | --- | --- | --- |
| 3xHA-TTBK2 carrying a deletion of its proline-rich region 1,074–1,087 (ΔPro.) (from UniProt Q6IQ55 1-1244) (enzyme) | binds | – | – |
| 3xHA-tagged human TTBK2, full length, WT (from UniProt Q6IQ55 1-1244) (enzyme) | binds | – | – |
| EB1, untagged, purified (from UniProt Q15691 1-268) | – | binds | binds |
